Assay results from PubChem BioAssay AID256 (DTP/NCI, 2004).
The list is a part of this screen's results and no random one: it is rich in T/C values a quarter to a half above the control, in often repeated tests (any T/C) and in doses without a T/C. Other doses and runs of a compound stand elsewhere. T/C: endpoint of the treated group in % of that of the vehicle group. Some doses have a count of surviving animals in place of a T/C: the source holds a T/C of zero for them, seemingly a mark for toxic or unscored doses. Some survivor counts are full or nearly so, which does not show that the dose was tolerated: survival well below the control is almost never listed, so the zero probably covers shortened survival too. Survivors were counted at the toxicity check, usually on the fifth day, unless a day is given; later deaths do not show. Schedules are NCI's codes, taken here to give the interval after Q, in days (D) or hours (H), and the number of doses after X. For survival time, the PubChem record calls one and a half times the control and up active, and a quarter to a half above the control has no call in these data; cut-offs in other NCI protocols can differ. Some T/C values carry the count of animals alive at the toxicity check (mostly the fifth day); where none is given, no animal had died by that day.

System: CD2F1 mice, L1210 leukemia ip, survival T/C
Experiment: NCI In Vivo Anticancer Drug Screen. Data for tumor model L1210 Leukemia (intraperitoneal) in CD2F1 (CDF1) mice
Conditions: higher T/C = longer survival
Method in brief: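 Transplantable tumor in mice; compound-treated vs vehicle-treated groups. Read-out = treated/control ratio of the measured endpoint.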

[1] = T/C endpoint: mean survival time, dose: 400.0 mg/kg/injection, schedule: Q04DX003 (ip), vehicle: saline with Tween-80
[2] = T/C endpoint: mean survival time, dose: 400.0 mg/kg/injection, schedule: Q04DX003 (ip), vehicle: saline
[3] = T/C endpoint: mean survival time, dose: 400.0 mg/kg/injection, schedule: Q01DX009 (ip), vehicle: saline with Tween-80
[4] = T/C endpoint: mean survival time, dose: 50.0 mg/kg/injection, schedule: Q04DX003 (ip), vehicle: saline
[5] = T/C endpoint: mean survival time, dose: 150.0 mg/kg/injection, schedule: Q01DX001 (ip), vehicle: saline
[6] = T/C endpoint: mean survival time, dose: 300.0 mg/kg/injection, schedule: Q01DX001 (ip), vehicle: saline
[7] = T/C endpoint: mean survival time, dose: 200.0 mg/kg/injection, schedule: Q04DX002 (ip), vehicle: saline with Tween-80
[8] = T/C endpoint: mean survival time, dose: 100.0 mg/kg/injection, schedule: Q01DX009 (ip), vehicle: saline with Tween-80
[9] = T/C endpoint: mean survival time, dose: 200.0 mg/kg/injection, schedule: Q01DX009 (ip), vehicle: saline with Tween-80

In the case of `O=C1c2ccccc2C(=O)c2c(NCCNCCO)ccc(O)c21`, the T/C (T/C endpoint: mean survival time, dose: 1.88 mg/kg/injection, schedule: Q01DX009 (ip), vehicle: saline) is reported as 136 % of control, the T/C (T/C endpoint: mean survival time, dose: 3.75 mg/kg/injection, schedule: Q01DX009 (ip), vehicle: saline) is reported as 147 % of control and the T/C (T/C endpoint: mean survival time, dose: 20.0 mg/kg/injection, schedule: Q01DX009 (ip), vehicle: suspension in saline) is reported as 125 % of control. For the same compound, the survivor count (T/C endpoint: mean survival time, dose: 30.0 mg/kg/injection, schedule: Q01DX009 (ip), vehicle: saline) was 6 of 6, the T/C (T/C endpoint: mean survival time, dose: 40.0 mg/kg/injection, schedule: Q01DX009 (ip), vehicle: suspension in saline) was 146 % of control and the T/C (T/C endpoint: median survival time, dose: 10.0 mg/kg/injection, schedule: Q01DX009 (ip), vehicle: suspension in saline) was 138 % of control. The T/C (T/C endpoint: median survival time, dose: 20.0 mg/kg/injection, schedule: Q01DX009 (ip), vehicle: suspension in saline) was 126 % of control.
For `Cc1ccc(Nc2c3ccccc3nc3ccccc23)cc1`, the T/C (T/C endpoint: mean survival time, dose: 75.0 mg/kg/injection, schedule: Q04DX003 (ip), vehicle: other) was 137 % of control and the survivor count (T/C endpoint: mean survival time, dose: 150.0 mg/kg/injection, schedule: Q04DX003 (ip), vehicle: saline with Tween-80) was 4 of 6.
With `O=P(c1ccccc1)(c1ccccc1)c1ccccc1` the survivor count [1] was 5 of 6.
`CCN(CC)C(=O)c1ccc[n+](Cc2ccc(Cl)cc2)c1` was tested, and the survivor count (T/C endpoint: mean survival time, dose: 200.0 mg/kg/injection, schedule: Q04DX003 (ip), vehicle: saline) was 0 of 6 and the survivor count [2] was 0 of 6.
For `BrC1(Br)C2CCCCCCC21` (stereo not drawn), the survivor count [3] was 0 of 6.
For `CCOc1ccccc1C(=O)OC(CN(CC)CC)c1ccccc1` (stereo not drawn), the survivor count (T/C endpoint: mean survival time, dose: 400.0 mg/kg/injection, schedule: Q04DX002 (ip), vehicle: saline) was 2 of 3.
`CC(C)[C@](O)(C(=O)OCC1=CCN2CC[C@@H](O)[C@@H]12)[C@H](C)O` was tested, and the survivor count (T/C endpoint: median survival time, dose: 800.0 mg/kg/injection, schedule: Q01DX009 (ip), vehicle: water) was 0 of 6.
For `O=C1OC(=O)C2C3CCC(O3)C12` (stereo not drawn), the survivor count (T/C endpoint: mean survival time, dose: 6.25 mg/kg/injection, schedule: Q01DX009 (ip), vehicle: saline) was 0 of 6, the survivor count (T/C endpoint: mean survival time, dose: 12.5 mg/kg/injection, schedule: Q04DX003 (ip), vehicle: saline) was 2 of 6 and the survivor count (T/C endpoint: mean survival time, dose: 25.0 mg/kg/injection, schedule: Q04DX003 (ip), vehicle: saline) was 0 of 6. The survivor count [4] was 0 of 6.
In the case of `COc1cc(C(=O)NNC(=O)c2ccc(Cl)cc2)cc(OC)c1OC`, the survivor count [3] is reported as 6 of 6.
`O=C1C=C[C@H](O)[C@@]2(CO)O[C@@H]12` was tested, and the T/C (T/C endpoint: median survival time, dose: 5.0 mg/kg/injection, schedule: Q01DX009 (ip), vehicle: saline with Tween-80) was 128 % of control, the T/C (T/C endpoint: median survival time, dose: 10.0 mg/kg/injection, schedule: Q01DX009 (ip), vehicle: saline with Tween-80) was 126 % of control and the survivor count (T/C endpoint: median survival time, dose: 20.0 mg/kg/injection, schedule: Q01DX009 (ip), vehicle: saline with Tween-80) was 3 of 6.
In the case of `Nc1nc(=S)c2[nH]c(N=Nc3ccc(S(=O)(=O)O)cc3)nc2[nH]1`, the T/C (T/C endpoint: mean survival time, dose: 25.0 mg/kg/injection, schedule: Q04DX003 (ip), vehicle: Klucel (hydroxypropylcellulose) (HPC)) is reported as 138 % of control, the T/C (T/C endpoint: mean survival time, dose: 50.0 mg/kg/injection, schedule: Q04DX003 (ip), vehicle: Klucel (hydroxypropylcellulose) (HPC)) is reported as 140 % of control and the survivor count (T/C endpoint: mean survival time, dose: 100.0 mg/kg/injection, schedule: Q04DX003 (ip), vehicle: Klucel (hydroxypropylcellulose) (HPC)) is reported as 1 of 6.
With `COC(=O)c1cc([N+](=O)[O-])c(Sc2ncnc3nc[nH]c23)c([N+](=O)[O-])c1` the T/C (T/C endpoint: mean survival time, dose: 25.0 mg/kg/injection, schedule: Q01DX005 (ip), vehicle: other) was 139 % of control, the survivor count (T/C endpoint: mean survival time, dose: 37.5 mg/kg/injection, schedule: Q01DX005 (ip), vehicle: other) was 3 of 6 and the survivor count (T/C endpoint: mean survival time, dose: 100.0 mg/kg/injection, schedule: Q01DX005 (ip), vehicle: other) was 2 of 3. For the same compound, the survivor count (T/C endpoint: mean survival time, dose: 200.0 mg/kg/injection, schedule: Q01DX005 (ip), vehicle: other) was 0 of 3.
For `CCCCCC(O)CCC(=O)NN` (stereo not drawn), the survivor count [2] was 1 of 6.
For `C[n+]1c(-c2ccc(NC(=O)c3ccc(C(=O)Nc4ccc(-c5cn6ccccc6[n+]5C)cc4)cc3)cc2)cn2ccccc21`, the T/C (T/C endpoint: median survival time, dose: 50.0 mg/kg/injection, schedule: Q01DX005 (ip), vehicle: saline with Tween-80) was 126 % of control and the survivor count (T/C endpoint: median survival time, dose: 69.0 mg/kg/injection, schedule: Q01DX005 (ip), vehicle: saline with Tween-80) was 6 of 6.
In the case of `O=C1CN(c2ccc3ccccc3c2)NO1`, the survivor count [1] is reported as 0 of 3.
For `CC(C)CCn1cnc2c(=S)nc(N)[nH]c21`, the T/C (T/C endpoint: mean survival time, dose: 50.0 mg/kg/injection, schedule: Q01DX001 (ip), vehicle: saline with Tween-80) was 146 % of control and the T/C (T/C endpoint: mean survival time, dose: 100.0 mg/kg/injection, schedule: Q01DX001 (ip), vehicle: saline with Tween-80) was 125 % of control.
For `NC(N)=N/N=C(\c1ccc(C(F)(F)F)cc1)c1ccc(Cl)c(Cl)c1`, the survivor count [5] was 0 of 6 and the survivor count [6] was 0 of 6.
With `CCOP(=O)(OCC)C(C#N)Cc1ccccc1OC` (stereo not drawn) the survivor count [2] was 0 of 6.
In the case of `[I][Pt][I].c1ccc([PH+](c2ccccc2)c2ccccc2)cc1.c1ccc([PH+](c2ccccc2)c2ccccc2)cc1`, the survivor count [7] is reported as 3 of 3.
`CC(=O)[O][Hg][CH]1CCCCC1O` (stereo not drawn) was tested, and the survivor count (T/C endpoint: mean survival time, dose: 12.5 mg/kg/injection, schedule: Q01DX009 (ip), vehicle: saline + alcohol) was 0 of 6, the survivor count (T/C endpoint: mean survival time, dose: 75.0 mg/kg/injection, schedule: Q01DX001 (ip), vehicle: saline) was 0 of 6 and the survivor count [8] was 0 of 6. For the same compound, the survivor count [5] was 0 of 6, the survivor count [9] was 0 of 6 and the survivor count [6] was 0 of 6. For the same compound, the survivor count [3] was 0 of 6.
With `c1ccc(Sc2ccncc2)cc1` the survivor count [7] was 1 of 3 and the survivor count (T/C endpoint: mean survival time, dose: 400.0 mg/kg/injection, schedule: Q04DX002 (ip), vehicle: saline with Tween-80) was 0 of 3.
For `Clc1cc(N2CC2)nc(N2CC2)n1`, the T/C (T/C endpoint: mean survival time, dose: 2.7 mg/kg/injection, schedule: Q01DX009 (ip), vehicle: saline) was 131 % of control.
For `NC1=CC(=O)c2ccccc2C1=O`, the survivor count [9] was 6 of 6.
`C[n+]1c2ccccc2c(Cl)c2ccccc21` was tested, and the survivor count (T/C endpoint: mean survival time, dose: 400.0 mg/kg/injection, schedule: Q01DX001 (ip), vehicle: saline with Tween-80) was 0 of 6.
With `S=C(S)NN1CCCC1` the survivor count [8] was 3 of 6, the survivor count (T/C endpoint: mean survival time, dose: 200.0 mg/kg/injection, schedule: Q04DX003 (ip), vehicle: saline with Tween-80) was 6 of 6 and the survivor count [1] was 2 of 6.
`C=C(C)C(=O)OC1C/C(CO)=C\C(O)C/C(C)=C/C2OC(=O)C(=C)C21` (stereo not drawn) was tested, and the T/C (T/C endpoint: mean survival time, dose: 10.0 mg/kg/injection, schedule: Q01DX009 (ip), vehicle: saline + alcohol) was 125 % of control, the T/C (T/C endpoint: mean survival time, dose: 20.0 mg/kg/injection, schedule: Q01DX009 (ip), vehicle: saline + alcohol) was 129 % of control and the T/C (T/C endpoint: mean survival time, dose: 40.0 mg/kg/injection, schedule: Q01DX009 (ip), vehicle: saline + alcohol) was 127 % of control [4 of 6 alive].
With `CC(=O)C(CCN(C)C)(c1ccccc1)c1ccccc1` the survivor count [6] was 0 of 6.
In the case of `CC(=O)C1(O)Cc2c(O)c3c(c(O)c2C(OC2CC(N)C(O)C(C)O2)C1)C(=O)c1ccccc1C3=O` (stereo not drawn), the T/C (T/C endpoint: mean survival time, dose: 0.2 mg/kg/injection, schedule: Q01DX009 (ip), vehicle: water) is reported as 129 % of control and the survivor count (T/C endpoint: mean survival time, dose: 1.6 mg/kg/injection, schedule: Q01DX009 (ip), vehicle: water) is reported as 5 of 6.
For `Fc1ccc(NC(=S)SCc2ccc(Cl)c(Cl)c2)cc1F`, the survivor count (T/C endpoint: mean survival time, dose: 400.0 mg/kg/injection, schedule: Q01DX009 (ip), vehicle: Klucel (hydroxypropylcellulose) (HPC)) was 5 of 6.
`c1ccc2c[n+]3cc4ccccc4cc3cc2c1` was tested, and the survivor count [4] was 4 of 6.
`COc1cccc2c1C(=O)c1c(O)c3c(c(O)c1C2=O)CC(O)(C(=O)CO)CC3OC1CC(N)C(O)C(C)O1.[Cl][Pt+2][Cl].[NH2-].[NH2-]` (stereo not drawn) was tested, and the T/C (T/C endpoint: median survival time, dose: 1.0 mg/kg/injection, schedule: Q04DX003 (ip), vehicle: DMSO) was 127 % of control, the T/C (T/C endpoint: median survival time, dose: 2.0 mg/kg/injection, schedule: Q04DX003 (ip), vehicle: DMSO) was 139 % of control and the T/C (T/C endpoint: median survival time, dose: 4.0 mg/kg/injection, schedule: Q04DX003 (ip), vehicle: DMSO) was 146 % of control. For the same compound, the survivor count (T/C endpoint: median survival time, dose: 32.0 mg/kg/injection, schedule: Q04DX003 (ip), vehicle: DMSO) was 6 of 6 and the survivor count (T/C endpoint: median survival time, dose: 64.0 mg/kg/injection, schedule: Q04DX003 (ip), vehicle: DMSO) was 6 of 6.
